Assay results from PubChem BioAssay AID256 (DTP/NCI, 2004).
The list shows only some results of the screen, not a fair sample: it covers a few groups of compounds. Not every dose and run of a compound is shown. T/C gives the treated animals as a percentage of the vehicle group. Some entries give survivors of the animals treated and no T/C: the source files T/C as zero there, which appears to mark a toxic dose or a test without result, not a measured value. Counts of survivors are from the toxicity check (mostly the fifth day) where no day follows; animals may have died later. Schedule codes are those of the source, read here as Q, the interval in days (D) or hours (H), X, the number of doses. Where survival is the endpoint, the PubChem record calls one and a half times the control and up active, and a quarter to a half above the control has no call in these data; cut-offs in other NCI protocols can differ. Some entries hold several experiments; their values stand side by side, smallest first. Some schedule codes hold Z or #, which are not explained here. Some entries show no survivor count and are marked so; the dose need not have been tolerated. Some T/C values are followed by the survivors on the day toxicity was checked, most often the fifth; without a count or a note in brackets, all were alive then.

Tested on: CD2F1 mice, L1210 leukemia ip, survival T/C
Test: NCI In Vivo Anticancer Drug Screen. Data for tumor model L1210 Leukemia (intraperitoneal) in CD2F1 (CDF1) mice
Details: T/C endpoint: mean survival time, higher T/C = longer survival
How it was run: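 Implant tumor; dose compound or vehicle; measure endpoint in both groups; report treated divided by control.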

[1] = dose: 75.0 mg/kg/injection, schedule: Q01DX001 (ip), vehicle: other
[2] = dose: 150.0 mg/kg/injection, schedule: Q01DX001 (ip), vehicle: other
[3] = dose: 100.0 mg/kg/injection, schedule: Q01DX001 (ip), vehicle: saline with Tween-80
[4] = dose: 200.0 mg/kg/injection, schedule: Q01DX001 (ip), vehicle: saline with Tween-80
[5] = dose: 100.0 mg/kg/injection, schedule: Q04DX003 (ip), vehicle: saline with Tween-80
[6] = dose: 62.5 mg/kg/injection, schedule: Q01DX001 (ip), vehicle: water
[7] = dose: 125.0 mg/kg/injection, schedule: Q01DX001 (ip), vehicle: water
[8] = dose: 250.0 mg/kg/injection, schedule: Q01DX001 (ip), vehicle: water
[9] = dose: 500.0 mg/kg/injection, schedule: Q01DX001 (ip), vehicle: water
[10] = dose: 100.0 mg/kg/injection, schedule: Q04DX002 (ip), vehicle: saline with Tween-80
[11] = dose: 200.0 mg/kg/injection, schedule: Q04DX002 (ip), vehicle: saline with Tween-80

O=[N+]([O-])c1ccc(S(=O)(=O)c2ccc([N+](=O)[O-])cc2[N+](=O)[O-])c([N+](=O)[O-])c1
T/C [1]: 100 % of control | T/C [2]: 108 % of control [5 of 6 alive] | survivor count (dose: 300.0 mg/kg/injection, schedule: Q01DX001 (ip), vehicle: other): 0 of 6

Cc1nc(N)[nH]c(=O)c1CCCNCc1cccnc1.O=[N+]([O-])c1cc([N+](=O)[O-])c(O)c([N+](=O)[O-])c1
T/C (dose: 50.0 mg/kg/injection, schedule: Q01DX001 (ip), vehicle: saline with Tween-80): 101 % of control | T/C [3]: 100 % of control | T/C [4]: 97 % of control

Cc1cc([N+](=O)[O-])cc([N+](=O)[O-])c1OC(=O)CCC(=O)Oc1c(C)cc([N+](=O)[O-])cc1[N+](=O)[O-]
T/C [5]: 89 % of control | T/C (dose: 200.0 mg/kg/injection, schedule: Q04DX003 (ip), vehicle: saline with Tween-80): 89 % of control | T/C (dose: 400.0 mg/kg/injection, schedule: Q04DX003 (ip), vehicle: saline with Tween-80): 93 % of control

O=P1(N(CCCl)CCCl)NCC(O)CO1 (centres undefined)
T/C (dose: 21.9 mg/kg/injection, schedule: Q01DX001 (ip), vehicle: DMSO): 102 % of control | T/C (dose: 25.0 mg/kg/injection, schedule: Q01DX001 (ip), vehicle: DMSO): 95 % of control | T/C (dose: 43.8 mg/kg/injection, schedule: Q01DX001 (ip), vehicle: DMSO): 100 % of control | T/C (dose: 50.0 mg/kg/injection, schedule: Q01DX001 (ip), vehicle: DMSO): 97 % of control | T/C (dose: 87.5 mg/kg/injection, schedule: Q01DX001 (ip), vehicle: DMSO): 102 % of control | T/C (dose: 100.0 mg/kg/injection, schedule: Q01DX001 (ip), vehicle: DMSO): 101 % of control | T/C (dose: 175.0 mg/kg/injection, schedule: Q01DX001 (ip), vehicle: DMSO): 105 % of control | T/C (dose: 200.0 mg/kg/injection, schedule: Q01DX001 (ip), vehicle: DMSO): 103 % of control | T/C (dose: 350.0 mg/kg/injection, schedule: Q01DX001 (ip), vehicle: DMSO): 105 % of control | T/C (dose: 400.0 mg/kg/injection, schedule: Q01DX001 (ip), vehicle: DMSO): 106 % of control | T/C (dose: 700.0 mg/kg/injection, schedule: Q01DX001 (ip), vehicle: DMSO): 110 % of control

COC(=O)/C=C/N(CCF)CCCl
T/C (dose: 1.0 mg/kg/injection, schedule: Q01DX Z (ip), vehicle: saline): 102 % of control | T/C (dose: 3.0 mg/kg/injection, schedule: Q01DX Z (ip), vehicle: saline): 102 % of control | T/C (dose: 10.0 mg/kg/injection, schedule: Q01DX Z (ip), vehicle: saline): 123 % of control

OOC1(OOC2(OO)CCCCC2)CCCCC1
T/C (dose: 12.5 mg/kg/injection, schedule: Q01DX009 (ip), vehicle: saline with Tween-80): 102 % of control [survivor count not shown] | T/C (dose: 25.0 mg/kg/injection, schedule: Q01DX009 (ip), vehicle: saline with Tween-80): 97 % of control [survivor count not shown] | T/C (dose: 50.0 mg/kg/injection, schedule: Q01DX009 (ip), vehicle: saline with Tween-80): 102 % of control [survivor count not shown]

NCCNCCCl
T/C (dose: 50.0 mg/kg/injection, schedule: Q01DX009 (ip), vehicle: saline): 104 % of control | T/C (dose: 100.0 mg/kg/injection, schedule: Q01DX009 (ip), vehicle: saline): 97 % of control | T/C (dose: 200.0 mg/kg/injection, schedule: Q01DX009 (ip), vehicle: saline): 97 % of control | T/C (dose: 400.0 mg/kg/injection, schedule: Q01DX009 (ip), vehicle: saline): 112 % of control

COc1ccc2c(c1)C13CCN(C)C(C2)C1CC(C)=C(C)C3.O=[N+]([O-])c1cc([N+](=O)[O-])c(O)c([N+](=O)[O-])c1 (centres undefined)
T/C (dose: 100.0 mg/kg/injection, schedule: Q04DX003 (ip), vehicle: saline sonified): 91 % of control [survivor count not shown] | T/C (dose: 200.0 mg/kg/injection, schedule: Q04DX003 (ip), vehicle: saline sonified): 91 % of control [survivor count not shown] | T/C (dose: 400.0 mg/kg/injection, schedule: Q04DX003 (ip), vehicle: saline sonified): 93 % of control [survivor count not shown]

CC1=NP(=O)(N(CCCl)CCCl)N=C(C)N1
T/C (dose: 31.25 mg/kg/injection, schedule: Q01DX001 (ip), vehicle: water): 104 % of control | T/C [6]: 100 % of control | T/C [7]: 98 % of control | T/C [8]: 98 % of control | T/C [9]: 104 % of control

CC(C)(C)C1CNP(=O)(N(CCCl)CCCl)OC1 (centres undefined)
T/C (dose: 15.63 mg/kg/injection, schedule: Q01DX001 (ip), vehicle: distilled water + Tween-80): 97 % of control | T/C (dose: 31.25 mg/kg/injection, schedule: Q01DX001 (ip), vehicle: distilled water + Tween-80): 97 % of control | T/C (dose: 62.5 mg/kg/injection, schedule: Q01DX001 (ip), vehicle: distilled water + Tween-80): 98 % of control | T/C (dose: 125.0 mg/kg/injection, schedule: Q01DX001 (ip), vehicle: distilled water + Tween-80): 97 % of control | T/C (dose: 250.0 mg/kg/injection, schedule: Q01DX001 (ip), vehicle: distilled water + Tween-80): 97 % of control [5 of 6 alive] | survivor count (dose: 500.0 mg/kg/injection, schedule: Q01DX001 (ip), vehicle: distilled water + Tween-80): 3 of 6

CCOP(C)(=O)OCCN(C)c1ccc([N+](=O)[O-])cc1 (centres undefined)
T/C (dose: 50.0 mg/kg/injection, schedule: Q04DX002 (ip), vehicle: saline with Tween-80): 107 % of control [survivor count not shown] | T/C [3]: 105 % of control [survivor count not shown] | T/C [10]: 104 % of control [survivor count not shown] | T/C [4]: 105 % of control [survivor count not shown] | T/C [11]: 104 % of control [survivor count not shown] | T/C (dose: 400.0 mg/kg/injection, schedule: Q01DX001 (ip), vehicle: saline with Tween-80): 100 % of control [survivor count not shown]

CC[P+]1(c2ccccc2)CCC(C)c2ccccc21.F[P-](F)(F)(F)(F)F (centres undefined)
survivor count [10]: 0 of 3 | survivor count [11]: 0 of 3 | survivor count (dose: 400.0 mg/kg/injection, schedule: Q04DX002 (ip), vehicle: saline with Tween-80): 0 of 3

NP(=O)(Oc1ccc([N+](=O)[O-])cc1)N(CCCl)CCCl (centres undefined)
T/C (dose: 62.5 mg/kg/injection, schedule: Q01DX001 (ip), vehicle: other): 102 % of control | T/C (dose: 125.0 mg/kg/injection, schedule: Q01DX001 (ip), vehicle: other): 94 % of control [5 of 6 alive] | T/C (dose: 250.0 mg/kg/injection, schedule: Q01DX001 (ip), vehicle: other): 98 % of control [5 of 6 alive] | survivor count (dose: 500.0 mg/kg/injection, schedule: Q01DX001 (ip), vehicle: other): 0 of 6

Cc1ccc(P(=O)(Cl)Cl)cc1
T/C (dose: 25.0 mg/kg/injection, schedule: Q04DX003 (ip), vehicle: saline with Tween-80): 98 % of control | T/C (dose: 50.0 mg/kg/injection, schedule: Q04DX003 (ip), vehicle: saline with Tween-80): 92 % of control | T/C [5]: 87 % of control

CCCCC(CCCC)NCC(C)O.O=[N+]([O-])c1cc([N+](=O)[O-])c(O)c([N+](=O)[O-])c1
T/C [1]: 102 % of control [survivor count not shown] | T/C [2]: 97 % of control [survivor count not shown]

CCOC(=O)C1CCOP(=O)(N(CCCl)CCCl)N1 (centres undefined)
T/C [6]: 108 % of control | T/C [7]: 114 % of control | T/C (dose: 222.0 mg/kg/injection, schedule: Q01DX001 (ip), vehicle: water): 111 % of control | T/C [8]: 114 % of control | T/C (dose: 333.0 mg/kg/injection, schedule: Q01DX001 (ip), vehicle: water): 111 % of control | T/C [9]: 110 and 130 % of control

CCN(CCCl)Cc1ccccc1
T/C (dose: 50.0 mg/kg/injection, schedule: Q04DX003 (ip), vehicle: saline): 91 % of control
